Measured values: the supplement of paper PMC8728848
The list shows a part of the results.

Key:
Assay in all cases: glycan array binding signal (z-score within array); higher = stronger binding
Conditions in all cases: glycan notation: IUPAC condensed, linker removed
Gal(a1-3)Gal(b1-4)GlcNAc = molecular target: Gal(a1-3)Gal(b1-4)GlcNAc
Summary of the method: (§1)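 Columns mapping to the same glycan were averaged after glycan names were converted to IUPAC-condensed notation. The data come from 3228 arrays in the Consortium for Functional Glycomics database, limited to those with an available protein sequence. Binding is reported as a within-array Z-score averaged across arrays of one protein sequence and across linkers.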

[1] = molecular target: Gal(a1-3)Gal(b1-4)GlcNAc(b1-2)Man
Summary of the method: as §1

[2] = molecular target: Gal(a1-3)Gal(b1-4)GlcNAc(b1-2)Man(a1-3)[Gal(a1-3)Gal(b1-4)GlcNAc(b1-2)Man(a1-6)]Man(b1-4)GlcNAc(b1-4)GlcNAc
Summary of the method: as §1

[3] = molecular target: Gal(a1-3)Gal(b1-4)GlcNAc(b1-3)GalNAc
Summary of the method: as §1

[4] = molecular target: Gal(a1-3)Gal(b1-4)GlcNAc(b1-6)GalNAc
Summary of the method: as §1

[5] = molecular target: Gal(a1-3)Gal(b1-4)[Fuc(a1-3)]GlcNAc
Summary of the method: as §1

[6] = molecular target: Gal(a1-3)Gal(b1-4)[Fuc(a1-3)]GlcNAc(b1-2)Man(a1-3)[Gal(a1-3)Gal(b1-4)[Fuc(a1-3)]GlcNAc(b1-2)Man(a1-6)]Man(b1-4)GlcNAc(b1-4)GlcNAc
Summary of the method: as §1

Gal(a1-3)GalNAc = molecular target: Gal(a1-3)GalNAc
Summary of the method: as §1

[7] = molecular target: Gal(a1-3)[Gal(a1-4)]Gal(b1-4)GlcNAc
Summary of the method: as §1

[8] = molecular target: Gal(a1-4)Gal(b1-3)GlcNAc(b1-2)Man(a1-3)[Gal(a1-4)Gal(b1-3)GlcNAc(b1-2)Man(a1-6)]Man(b1-4)GlcNAc(b1-4)GlcNAc
Summary of the method: as §1

Gal(a1-4)Gal(b1-4)Glc = molecular target: Gal(a1-4)Gal(b1-4)Glc
Summary of the method: as §1

Gal(a1-4)Gal(b1-4)GlcNAc = molecular target: Gal(a1-4)Gal(b1-4)GlcNAc
Summary of the method: as §1

[9] = molecular target: Gal(a1-4)Gal(b1-4)GlcNAc(b1-2)Man(a1-3)[Gal(a1-4)Gal(b1-4)GlcNAc(b1-2)Man(a1-6)]Man(b1-4)GlcNAc(b1-4)GlcNAc
Summary of the method: as §1

[10] = molecular target: Gal(a1-4)Gal(b1-4)GlcNAc(b1-3)Gal(b1-4)Glc
Summary of the method: as §1

Gal(a1-4)GlcNAc = molecular target: Gal(a1-4)GlcNAc
Summary of the method: as §1

Gal(a1-6)Glc = molecular target: Gal(a1-6)Glc
Summary of the method: as §1

Gal(b1-2)Gal = molecular target: Gal(b1-2)Gal
Summary of the method: as §1

Gal(b1-3)Gal = molecular target: Gal(b1-3)Gal
Summary of the method: as §1

Gal(b1-3)Gal(b1-4)GlcNAc = molecular target: Gal(b1-3)Gal(b1-4)GlcNAc
Summary of the method: as §1

Gal(b1-3)GalNAc = molecular target: Gal(b1-3)GalNAc
Summary of the method: as §1

[11] = molecular target: Gal(b1-3)GalNAc(a1-3)[Fuc(a1-2)]Gal(b1-4)Glc
Summary of the method: as §1

[12] = molecular target: Gal(b1-3)GalNAc(a1-3)[Fuc(a1-2)]Gal(b1-4)GlcNAc
Summary of the method: as §1

Gal(b1-3)GalNAc(b1-3)Gal = molecular target: Gal(b1-3)GalNAc(b1-3)Gal
Summary of the method: as §1

[13] = molecular target: Gal(b1-3)GalNAc(b1-3)Gal(a1-4)Gal(b1-4)Glc
Summary of the method: as §1

[14] = molecular target: Gal(b1-3)GalNAc(b1-4)Gal(b1-4)Glc
Summary of the method: as §1

[15] = molecular target: Gal(b1-3)GalNAc(b1-4)[Neu5Ac(a2-3)]Gal(b1-4)Glc
Summary of the method: as §1

Gal(b1-3)GlcNAc = molecular target: Gal(b1-3)GlcNAc
Summary of the method: as §1

[16] = molecular target: Gal(b1-3)GlcNAc(a1-3)Gal(b1-4)GlcNAc
Summary of the method: as §1

[17] = molecular target: Gal(b1-3)GlcNAc(a1-6)Gal(b1-4)GlcNAc
Summary of the method: as §1

Gal(b1-3)GlcNAc(b1-2)Man = molecular target: Gal(b1-3)GlcNAc(b1-2)Man
Summary of the method: as §1

[18] = molecular target: Gal(b1-3)GlcNAc(b1-2)Man(a1-3)[Gal(b1-3)GlcNAc(b1-2)Man(a1-6)]Man(b1-4)GlcNAc(b1-4)GlcNAc
Summary of the method: as §1

[19] = molecular target: Gal(b1-3)GlcNAc(b1-2)Man(a1-3)[Gal(b1-3)GlcNAc(b1-2)Man(a1-6)]Man(b1-4)GlcNAc(b1-4)[Fuc(a1-6)]GlcNAc
Summary of the method: as §1

[20] = molecular target: Gal(b1-3)GlcNAc(b1-2)Man(a1-3)[GlcNAc(b1-4)][Gal(b1-3)GlcNAc(b1-2)Man(a1-6)]Man(b1-4)GlcNAc(b1-4)GlcNAc
Summary of the method: as §1

[21] = molecular target: Gal(b1-3)GlcNAc(b1-2)[Gal(b1-3)GlcNAc(b1-6)]Man(a1-6)[Gal(b1-3)GlcNAc(b1-2)Man(a1-3)]Man(b1-4)GlcNAc(b1-4)GlcNAc
Summary of the method: as §1

[22] = molecular target: Gal(b1-3)GlcNAc(b1-3)Gal(b1-3)GlcNAc
Summary of the method: as §1

[23] = molecular target: Gal(b1-3)GlcNAc(b1-3)Gal(b1-4)Glc
Summary of the method: as §1

[24] = molecular target: Gal(b1-3)GlcNAc(b1-3)Gal(b1-4)GlcNAc
Summary of the method: as §1

B1: DC-Sign-R (Homo sapiens), Q9H2X3 (protein)
chain: MSDSKEPRVQQLGLLEEDPTTSGIRLFPRDFQFQQIHGHKSSTGCLGHGALVLQLLSFMLLAGVLVAILVQVSKVPSSLSQEQSEQDAIYQNLTQLKAAVGELSEKSKLQEIYQELTQLKAAVGELPEKSKLQEIYQELTRLKAAVGELPEKSKLQEIYQELTRLKAAVGELPEKSKLQEIYQELTRLKAAVGELPEKSKLQEIYQELTELKAAVGELPEKSKLQEIYQELTQLKAAVGELPDQSKQQQIYQELTDLKTAFERLCRHCPKDWTFFQGNCYFMSNSQRNWHDSVTACQEVRAQLVVIKTAEEQNFLQLQTSRSNRFSWMGLSDLNQEGTWQWVDGSPLSPSFQRYWNSGEPNNSGNEDCAEFSGSGWNDNRCDVDNYWICKKPAACFRDE
Gal(a1-3)Gal(b1-4)GlcNAc
  glycan array binding signal (z-score): -0.63
[1]
  glycan array binding signal (z-score): -0.666
[2]
  glycan array binding signal (z-score): 0.087
[3]
  glycan array binding signal (z-score): 0.529
[4]
  glycan array binding signal (z-score): -0.796
[5]
  glycan array binding signal (z-score): -0.822
[6]
  glycan array binding signal (z-score): -0.757
Gal(a1-3)GalNAc
  glycan array binding signal (z-score): -0.111
[7]
  glycan array binding signal (z-score): -0.469
[8]
  glycan array binding signal (z-score): -0.125
Gal(a1-4)Gal(b1-4)Glc
  glycan array binding signal (z-score): -0.687
Gal(a1-4)Gal(b1-4)GlcNAc
  glycan array binding signal (z-score): -0.25
[9]
  glycan array binding signal (z-score): -0.683
[10]
  glycan array binding signal (z-score): -0.685
Gal(a1-4)GlcNAc
  glycan array binding signal (z-score): -0.867
Gal(a1-6)Glc
  glycan array binding signal (z-score): -0.326
Gal(b1-2)Gal
  glycan array binding signal (z-score): -0.796
Gal(b1-3)Gal
  glycan array binding signal (z-score): -0.88
Gal(b1-3)Gal(b1-4)GlcNAc
  glycan array binding signal (z-score): -0.852
Gal(b1-3)GalNAc
  glycan array binding signal (z-score): -0.793
[11]
  glycan array binding signal (z-score): 0.585
[12]
  glycan array binding signal (z-score): 1.15
Gal(b1-3)GalNAc(b1-3)Gal
  glycan array binding signal (z-score): -0.574
[13]
  glycan array binding signal (z-score): -0.376
[14]
  glycan array binding signal (z-score): -0.285
[15]
  glycan array binding signal (z-score): -0.645
Gal(b1-3)GlcNAc
  glycan array binding signal (z-score): -0.714
[16]
  glycan array binding signal (z-score): 0.126
[17]
  glycan array binding signal (z-score): 1.38
Gal(b1-3)GlcNAc(b1-2)Man
  glycan array binding signal (z-score): -0.708
[18]
  glycan array binding signal (z-score): -0.64
[19]
  glycan array binding signal (z-score): -0.814
[20]
  glycan array binding signal (z-score): -0.013
[21]
  glycan array binding signal (z-score): -0.7
[22]
  glycan array binding signal (z-score): 0.038
[23]
  glycan array binding signal (z-score): -0.799
[24]
  glycan array binding signal (z-score): -0.684
